For the assay, the target named is T1, SmBiT-STING (mouse) (UniProt Q3TBT3).
T1 sequence: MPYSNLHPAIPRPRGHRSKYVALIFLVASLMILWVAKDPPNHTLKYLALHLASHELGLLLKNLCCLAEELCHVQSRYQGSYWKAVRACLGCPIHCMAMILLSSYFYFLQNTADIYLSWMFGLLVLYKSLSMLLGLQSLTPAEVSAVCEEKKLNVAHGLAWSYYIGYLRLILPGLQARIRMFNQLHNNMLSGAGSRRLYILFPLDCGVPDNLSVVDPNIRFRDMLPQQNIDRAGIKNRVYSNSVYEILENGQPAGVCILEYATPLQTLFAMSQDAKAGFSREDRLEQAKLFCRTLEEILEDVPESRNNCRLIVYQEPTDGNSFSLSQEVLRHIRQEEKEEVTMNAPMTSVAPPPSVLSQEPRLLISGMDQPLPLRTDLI
Briefly: split reporter; split NanoLuc luciferase assay in Sting-/- MEFs stably expressing both fusions; Nano-Glo Endurazine substrate 2 h at 37 °C, then vehicle (DMSO) or DMXAA for 4 h.

No constants are given. Whether binding was seen depends on the method and setting. In cells and extracts the contact can be indirect. Some entries that bind do so weakly or less than the wild type.

B1: LgBiT-Tsg101 (ΔUEV) (domain or fragment, UniProt Q61187 146-391)
chain: TVSASYPPYTATGPPNTSYMPGMPSGISAYPSGYPPNPSGYPGCPYPPAGPYPATTSSQYPSQPPVTTVGPSRDGTISEDTIRASLISAVSDKLRWRMKEEMDGAQAELNALKRTEEDLKKGHQKLEEMVTRLDQEVAEVDKNIELLKKKDEELSSALEKMENQSENNDIDEVIIPTAPLYKQILNLYAEENAIEDTIFYLGEALRRGVIDLDVFLKHVRLLSRKQFQLRALMQKARKTAGLSDLY
On to B1, for which the binding entry was “no binding”.

B2: LgBiT-Tsg101 (WT) (protein, UniProt Q61187 1-391)
chain: MAVSESQLKKMMSKYKYRDLTVRQTVNVIAMYKDLKPVLDSYVFNDGSSRELVNLTGTIPVRYRGNIYNIPICLWLLDTYPYNPPICFVKPTSSMTIKTGKHVDANGKIYLPYLHDWKHPRSELLELIQIMIVIFGEEPPVFSRPTVSASYPPYTATGPPNTSYMPGMPSGISAYPSGYPPNPSGYPGCPYPPAGPYPATTSSQYPSQPPVTTVGPSRDGTISEDTIRASLISAVSDKLRWRMKEEMDGAQAELNALKRTEEDLKKGHQKLEEMVTRLDQEVAEVDKNIELLKKKDEELSSALEKMENQSENNDIDEVIIPTAPLYKQILNLYAEENAIEDTIFYLGEALRRGVIDLDVFLKHVRLLSRKQFQLRALMQKARKTAGLSDLY
As for B2, the binding result is listed as “binds”.

The values above are taken from paper PMC10014584.
